# Results are given in words; binding and its absence hold for the method and conditions named. In cells and extracts the contact can be indirect. A yes stands for co-enrichment or nearness to the bait. Other partners may have been found. Sequences can lack the tags named with a protein.
# Protein sequences, listed by entry. Tags and fused reporters are not part of them.
# UniProt P42568: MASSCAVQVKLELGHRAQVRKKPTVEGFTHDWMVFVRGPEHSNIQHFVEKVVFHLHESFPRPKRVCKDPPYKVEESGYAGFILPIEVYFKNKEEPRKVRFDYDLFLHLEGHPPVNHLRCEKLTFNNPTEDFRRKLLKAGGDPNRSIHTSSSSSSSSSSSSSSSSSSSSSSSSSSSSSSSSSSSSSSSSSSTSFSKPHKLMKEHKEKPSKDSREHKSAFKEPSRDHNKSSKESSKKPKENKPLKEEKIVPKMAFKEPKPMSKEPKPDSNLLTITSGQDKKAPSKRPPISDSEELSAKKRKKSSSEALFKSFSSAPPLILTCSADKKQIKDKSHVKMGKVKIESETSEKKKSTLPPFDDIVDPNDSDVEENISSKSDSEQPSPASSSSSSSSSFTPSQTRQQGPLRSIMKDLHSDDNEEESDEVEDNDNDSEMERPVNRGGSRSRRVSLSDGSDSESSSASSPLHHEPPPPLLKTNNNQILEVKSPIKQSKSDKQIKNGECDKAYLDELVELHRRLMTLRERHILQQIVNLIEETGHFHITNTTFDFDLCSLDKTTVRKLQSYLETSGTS
# UniProt P32780: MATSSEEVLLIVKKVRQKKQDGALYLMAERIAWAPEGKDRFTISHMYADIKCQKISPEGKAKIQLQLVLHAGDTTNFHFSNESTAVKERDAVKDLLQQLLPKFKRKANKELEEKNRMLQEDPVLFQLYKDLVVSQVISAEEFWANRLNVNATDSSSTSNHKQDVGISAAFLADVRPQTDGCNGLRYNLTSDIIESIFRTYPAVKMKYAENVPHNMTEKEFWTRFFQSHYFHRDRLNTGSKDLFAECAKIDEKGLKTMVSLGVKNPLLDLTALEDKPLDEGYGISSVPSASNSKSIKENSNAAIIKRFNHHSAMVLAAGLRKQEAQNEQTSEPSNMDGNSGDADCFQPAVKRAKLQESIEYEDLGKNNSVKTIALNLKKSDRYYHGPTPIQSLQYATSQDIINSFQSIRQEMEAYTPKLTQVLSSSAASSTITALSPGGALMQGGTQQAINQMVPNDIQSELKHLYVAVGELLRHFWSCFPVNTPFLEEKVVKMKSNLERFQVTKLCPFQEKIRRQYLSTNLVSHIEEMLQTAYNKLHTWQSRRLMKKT
# Molecular target: T1, GST-AF-1 (1–92) (human) (UniProt P10276)
# T1 sequence: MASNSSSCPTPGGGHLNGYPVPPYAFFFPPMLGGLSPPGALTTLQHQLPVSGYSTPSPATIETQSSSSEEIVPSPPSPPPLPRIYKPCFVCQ
# Assay: affinity purification with mass spectrometry; GST-AF-1 immobilised on beads (20 µg) incubated at 4°C for 6–10 hours with 2–6 mg HeLa nuclear extract in 20 mM Tris-HCl pH 7.9, 100 mM KCl, 0.1% NP-40, 1 mg/mL BSA; washes with 150 mM KCl and 0.3% NP-40; SDS-PAGE bands analysed by MALDI-TOF; only the target purified
substance,measurement,value
AF9/MLLT3 (ALL1 fused gene from chromosome 9) (from UniProt P42568 1-568),binding,binds
p62 subunit of TFIIH (BTF2) (from UniProt P32780 1-548),binding,binds
